# Results reported in PMC5970211.
# These are yes or no findings as the source states them, for the method shown. Binding seen in cells or lysates may run through a third protein. Some results given as binding are weak or reduced against the parent protein; the word gives no strength.
# B1: Neuroglobin (protein, UniProt Q99JA8 1-151)
# chain: MERPESELIRQSWRAVSRSPLEHGTVLFSRLFALEPSLLPLFQYNGRQFSSPEDCLSSPEFLDHIRKVMLVIDAAVTNVEDLSSLEEYLATLGRKHRAVGVRLSSFSTVGESLLYMLEKCLGPDFTPATRTAWSQLYGAVVQAMSRGWDGE
# How the values were obtained:
# [1] = molecular target: Na+/K+ ATPases β1 subunit (rat (endogenous in hippocampal CA1)) (UniProt P07340); assay: proximity ligation; Duolink In Situ Red kit on dorsal hippocampus sections of Sham rats and of tGCI and HPC rats 26 h after reperfusion; rabbit anti-Ngb and mouse anti-Atp1b1
# [2] = molecular target: Na+/K+ ATPases β1 subunit (rat (endogenous in hippocampal CA1)) (UniProt P07340); assay: co-IP; 150 μg membrane proteins of hippocampal CA1 from Sham, tGCI and HPC rats; IP with mouse anti-Atp1b1 antibody at 4 °C overnight, protein G agarose, washed five times with PBS containing 1% Tween; blot with rabbit anti-Ngb
binder,measurement,setting,value
B1,binding,[1],binds
same,binding,[2],binds
